# According to the supplement of paper PMC10689618:
# Where a name gives a salt, the structure may show the parent alone. Some of the results follow. Many values rest on one well or one pass, so single values are uncertain.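 Primary human fetal astrocytes engulfed labelled rat cortical synaptosomes, measured as a red/green ratio corrected for calcein live-cell signal and scaled to the plate median. Toxicity meant calcein falling over 30%; decreased phagocytosis meant below 70% of median above 5 µM.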
# Legend:
# Human fetal astrocytes [1] = assay: loss of total cells relative to no-compound high-control median (toxicity); higher = more toxic (fewer cells); settings: 24 h
# Human fetal astrocytes [2] = assay: synaptosome phagocytosis (pHrodo/calcein intensity ratio) relative to plate median of data wells; higher = more phagocytosis; settings: 24 h
SMILES,loss of total cells (Human fetal astrocytes [1]; 1.39 µM),loss of total cells (Human fetal astrocytes [1]; 2.78 µM),loss of total cells (Human fetal astrocytes [1]; 5.56 µM),loss of total cells (Human fetal astrocytes [1]; 11.11 µM),loss of total cells (Human fetal astrocytes [1]; 22.22 µM),synaptosome phagocytosis (Human fetal astrocytes [2]; 1.39 µM),synaptosome phagocytosis (Human fetal astrocytes [2]; 2.78 µM),synaptosome phagocytosis (Human fetal astrocytes [2]; 5.56 µM),synaptosome phagocytosis (Human fetal astrocytes [2]; 11.11 µM),synaptosome phagocytosis (Human fetal astrocytes [2]; 22.22 µM)
N[C@@H](Cc1c[nH]c2ccccc12)C(=O)O [L-Tryptophan],-29.5%,-15.3%,6.2%,-33.3%,-17.3%,114%,98.8%,98.5%,106%,82.4%
COc1cc(CNC(=O)CCCCCCC(C)C)ccc1O [Dihydrocapsaicin],-5.2%,28.5%,14.6%,10.5%,11.2%,115%,104%,105%,92.2%,120%
C[N+](C)(C)CC=O [Betaine aldehyde chloride],-7.3%,-11.7%,-15.2%,3.1%,-13.9%,114%,106%,106%,119%,94.4%
CC1=C(/C=C/C(C)=C/C=C/C(C)=C/C=C/C=C(C)/C=C/C=C(C)/C=C/C2=C(C)C(=O)[C@@H](O)CC2(C)C)C(C)(C)C[C@H](O)C1=O [Astaxanthin],-5.1%,-8.4%,-32.7%,-15.7%,-7.9%,115%,104%,101%,95.2%,96.7%
CCCCCCCCCCCCCCCCCCOCC(COP(=O)([O-])OCC[N+](C)(C)C)OC (stereo not given),-18%,-16.2%,0.8%,-34.5%,8.8%,87.7%,95.5%,101%,92%,115%
NC(=NCCC[C@H](N)C(=O)O)NO [NG-Hydroxy-L-arginine acetate],1.3%,-6%,-2.5%,-6.7%,-0.8%,114%,87.6%,120%,95.9%,120%
COC(=O)C(C)(N)Cc1ccc(O)cc1 (racemic) [alpha-Methyl-DL-tyrosine methyl ester hydrochloride],-28.9%,-7.7%,-14.6%,6.7%,16.8%,114%,74.6%,81.7%,83.8%,116%
CO/N=C(\C(=O)N[C@@H]1C(=O)N2C(C(=O)O)=C(CSc3nc(=O)c(O)nn3C)CS[C@H]12)c1csc(N)n1 [Ceftriaxone sodium],-14.7%,-13.8%,-28.1%,-12.1%,11.7%,84.5%,107%,99.6%,116%,92.6%
N[C@@H](C(=O)N[C@@H]1C(=O)N2C(C(=O)O)=C(Cl)CS[C@H]12)c1ccccc1 [Cefaclor],-19.4%,-5.7%,11.5%,-25.6%,-0.4%,107%,97.1%,90%,72.3%,111%
COc1ccccc1N1CCN(CCN(C(=O)c2ccc(F)cc2)c2ccccn2)CC1 [p-MPPF dihydrochloride],6.2%,8.6%,14.6%,10.5%,13.1%,95.7%,115%,113%,124%,111%
C[n+]1cc2c3c(ccc2c2ccc4cc5c(cc4c21)OCO5)OCO3 [Sanguinarine chloride],-9.6%,15.9%,14.6%,77%,63.4%,68.6%,57.7%,38.8%,0%,0%

# Complete entries as entered above. Values in the order: loss of total cells (Human fetal astrocytes [1]; 1.39 µM) | loss of total cells (Human fetal astrocytes [1]; 2.78 µM) | loss of total cells (Human fetal astrocytes [1]; 5.56 µM) | loss of total cells (Human fetal astrocytes [1]; 11.11 µM) | loss of total cells (Human fetal astrocytes [1]; 22.22 µM) | synaptosome phagocytosis (Human fetal astrocytes [2]; 1.39 µM) | synaptosome phagocytosis (Human fetal astrocytes [2]; 2.78 µM) | synaptosome phagocytosis (Human fetal astrocytes [2]; 5.56 µM) | synaptosome phagocytosis (Human fetal astrocytes [2]; 11.11 µM) | synaptosome phagocytosis (Human fetal astrocytes [2]; 22.22 µM)
# COc1cc(CNC(=O)CCCCCCC(C)C)ccc1O [Dihydrocapsaicin] in the list: -5.2% | 28.5% | 14.6% | 10.5% | 11.2% | 115% | 104% | 105% | 92.2% | 120%
# CCCCCCCCCCCCCCCCCCOCC(COP(=O)([O-])OCC[N+](C)(C)C)OC (stereo not given) in the list: -18% | -16.2% | 0.8% | -34.5% | 8.8% | 87.7% | 95.5% | 101% | 92% | 115%
